Laboratory results published in patent US20090214662A1 (UNIVERSITY OF MARYLAND BALTIMORE, published 2009).
No constants are given. Whether binding was seen depends on the method and setting. Some entries that bind do so weakly or less than the wild type.

By UniProt entry, the sequences of proteins in these tests, tags left out. Where a name states a change or a piece, a line headed by the entry shows the natural chain unless it says otherwise.
UniProt P02671: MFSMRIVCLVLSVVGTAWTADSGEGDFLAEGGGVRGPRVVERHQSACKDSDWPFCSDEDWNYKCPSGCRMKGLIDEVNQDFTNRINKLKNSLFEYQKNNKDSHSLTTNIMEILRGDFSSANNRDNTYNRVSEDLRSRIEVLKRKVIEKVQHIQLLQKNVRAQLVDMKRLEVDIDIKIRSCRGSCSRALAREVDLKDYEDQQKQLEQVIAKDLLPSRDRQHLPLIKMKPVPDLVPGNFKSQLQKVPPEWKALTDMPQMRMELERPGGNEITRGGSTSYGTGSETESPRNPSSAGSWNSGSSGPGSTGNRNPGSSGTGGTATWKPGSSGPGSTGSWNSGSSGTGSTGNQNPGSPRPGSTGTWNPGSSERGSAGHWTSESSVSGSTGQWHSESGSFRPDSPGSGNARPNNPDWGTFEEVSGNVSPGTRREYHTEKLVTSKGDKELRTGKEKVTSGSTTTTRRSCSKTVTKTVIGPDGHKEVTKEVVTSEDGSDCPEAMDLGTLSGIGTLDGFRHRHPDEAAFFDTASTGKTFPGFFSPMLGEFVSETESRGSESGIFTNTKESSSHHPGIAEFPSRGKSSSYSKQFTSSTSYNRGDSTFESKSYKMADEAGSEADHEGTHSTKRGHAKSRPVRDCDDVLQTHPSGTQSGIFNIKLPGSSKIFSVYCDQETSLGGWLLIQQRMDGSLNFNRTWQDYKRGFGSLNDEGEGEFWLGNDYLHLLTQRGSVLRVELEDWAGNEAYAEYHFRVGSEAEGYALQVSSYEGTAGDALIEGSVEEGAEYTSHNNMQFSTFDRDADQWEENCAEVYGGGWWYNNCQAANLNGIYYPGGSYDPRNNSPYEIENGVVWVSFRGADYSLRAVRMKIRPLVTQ

Molecular target: T1, Lactobacillus brevis ATCC 8287 SlpA surface layer protein (Lactobacillus brevis ATCC 8287) (UniProt Q05044)
T1 sequence (looked up): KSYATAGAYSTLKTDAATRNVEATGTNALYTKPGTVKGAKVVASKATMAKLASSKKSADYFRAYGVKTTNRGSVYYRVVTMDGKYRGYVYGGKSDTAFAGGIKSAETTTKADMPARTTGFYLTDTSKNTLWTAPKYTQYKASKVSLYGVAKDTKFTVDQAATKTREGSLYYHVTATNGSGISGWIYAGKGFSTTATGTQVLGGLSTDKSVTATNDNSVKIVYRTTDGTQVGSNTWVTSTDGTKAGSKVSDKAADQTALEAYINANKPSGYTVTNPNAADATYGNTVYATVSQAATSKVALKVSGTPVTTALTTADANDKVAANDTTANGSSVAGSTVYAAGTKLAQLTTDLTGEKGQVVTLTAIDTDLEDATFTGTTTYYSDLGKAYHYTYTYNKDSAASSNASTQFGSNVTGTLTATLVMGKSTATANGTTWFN
Assay: SPR (BIAcore 3000), SlpA immobilised

- binding: binds
Substance: Fibrinogen (human plasma) (from UniProt P02671 20-629; P02675 31-491; P02679 27-453)
